Results as given in the supplement of paper PMC12009310.
Where a name gives a salt, the structure may show the parent alone. ± gives the standard deviation of the averaged measurements. This is one part of the list. Plates or batches differ in their baseline, so values are only roughly comparable.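 The cells are a mouse kidney inner medullary collecting duct line, silenced either for the ciliary gene Rpgrip1l or with a non-targeting control siRNA. Primary scores are means of two runs against batch controls; in the follow-up screen a hit raised cilia by at least 2 over its matching control, and compounds dropping cell number by 2 or more were excluded. The cells are a mouse kidney inner medullary collecting duct line, silenced either for the ciliary gene Rpgrip1l or with a non-targeting control siRNA.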

Key:
[1] = test system: mIMCD3; assay: robust z score of cell number vs plate controls; higher = more cells (less cytotoxic); conditions: 10 µM, 48 h
[2] = test system: mIMCD3; assay: robust z cell number difference from vehicle control (robust z score difference); higher = more cells; conditions: 10 µM, 48 h
[3] = test system: mIMCD3; assay: robust z score of cilia incidence (% cells with single cilium) vs plate controls; higher = more ciliated cells; conditions: 10 µM; 48 h; siRNA: siScr
[4] = test system: mIMCD3; assay: robust z cilia incidence difference from vehicle control (robust z score difference); higher = more ciliated cells; conditions: 10 µM; 48 h; siRNA: siScr
[5] = test system: mIMCD3; assay: robust z cilia incidence difference from vehicle control (robust z score difference); higher = more ciliated cells (rescue); conditions: 10 µM; 48 h; siRNA: siRpgrip1l
[6] = test system: mIMCD3; assay: robust z score of cilia incidence (% cells with single cilium) vs plate controls; higher = more ciliated cells (rescue of cilia loss); conditions: 10 µM; 48 h; siRNA: siRpgrip1l

SMILES	robust z score of cell number ([1]; siRNA: siRpgrip1l)	robust z score of cell number ([1]; siRNA: siScr)	robust z cell number difference ([2]; siRNA: siRpgrip1l)	robust z cell number difference ([2]; siRNA: siScr)	robust z score of cilia incidence [3]	robust z cilia incidence difference [4]	robust z cilia incidence difference [5]	robust z score of cilia incidence [6]
N=C(N)c1ccc(N2CCN(C3CCN(CC(=O)O)CC3)CC2)cc1	-7.31 ± 1.4	-2.09 ± 0.27	1.03	-1.01 ± 5.9	4.38 ± 3.5	3.89 ± 3.2	5.17	-6.19 ± 1.9
NS(=O)(=O)c1cccc2c1c([N+](=O)[O-])cc1nc(O)c(O)nc12 [NBQX disodium salt]	-4.24 ± 3.7	1.9 ± 2	2.03	0.472 ± 1.9	0.597 ± 1.9	0.58 ± 1.4	5.39	-10.6 ± 0.12
CC(C)(Oc1ccc(Cl)cc1)C(=O)O [Clofibric acid]	0.0253 ± 0.88	-1.29 ± 2.8	3.4	2 ± 5.1	2.66 ± 1.2	-5.32 ± 6.1	2.76	-2.74 ± 0.62
CC(C)C[C@H](NC(=O)N1CCCCCC1)C(=O)N[C@H](Cc1cn(C)c2ccccc12)C(=O)N[C@H](Cc1ccccn1)C(=O)O	-4.02 ± 2.9	-0.182 ± 0.62	1.36	-0.973 ± 1.6	1.57 ± 1.6	2.09 ± 3.1	-1.57	-14.2 ± 4.7
CC(C)NC[C@H](O)COc1cccc2ccccc12 [(S)-(-)-Propranolol hydrochloride]	-2.25 ± 0.098	-1.96 ± 1.2	-16.3	-8.69 ± 11	4.75 ± 0.81	-9.72 ± 17	-26.7	0.58 ± 1.3
Nc1cc(N2CCCCC2)nc(N)[n+]1[O-] [Minoxidil]	-6.55 ± 4.8	1.53 ± 3.5	3.29	3.3 ± 6	1.27 ± 0.028	-3.07 ± 8.2	-0.774	-6.07 ± 6.7
O=C(O)/C=C/c1ccc(Cn2ccnc2)cc1 [Ozagrel hydrochloride]	-4.62 ± 6.4	0.4 ± 0.9	0.923	0.0086 ± 2.5	1.57 ± 0.21	3.21 ± 3	-0.826	-133 ± 140
NC(=O)CCCCn1ccc(NC(N)=NCC(F)(F)F)n1	-4 ± 3.8	-4.3 ± 0.14	-0.317	-0.578 ± 4	2.21 ± 2	1.12 ± 0.052	0.329	-1.63 ± 1.9
CC(=O)N[C@@H](CC(=O)N[C@@H](CCC(=O)O)C(=O)O)C(=O)O [Spaglumic acid]	-6.67 ± 14	5.46 ± 4.5	1.31	1.8 ± 3.1	0.886 ± 0.87	-4.53 ± 7.9	5.31	-3.1 ± 4.1
O=C(Nc1ccccc1)c1cc([N+](=O)[O-])ccc1Cl	-10.7 ± 5.2	-7.29 ± 1.3	-2.18	-1.79 ± 1.2	4.78 ± 1.8	3.95 ± 2.4	-3.56	-83.3 ± 70
COc1cc(OC)c(C(=O)CCCCN2CCC3(CC2)NC(=O)NC3=O)cc1NS(=O)(=O)c1ccc(C(F)(F)F)cc1	-10.2 ± 11	-1.93 ± 0.13	1.9	0.761 ± 2.9	1.84 ± 0.67	2.72 ± 1.8	3.71	-9.68 ± 0.74
CCOC(=O)C1=C(C)NC(=S)NC1c1cccc(O)c1 (centres undefined) [Monastrol]	-15.5 ± 20	-1.1 ± 0.52	-14.9	-11.1 ± 5.1	5.06 ± 5.8	-7.03 ± 2.6	-21.7	-5.63 ± 2.1
CC[N+](C)(CC)CC(=O)Nc1c(C)cccc1C [N-Methyllidocaine iodide]	-0.955 ± 1.9	1.31 ± 1.1	1.59	0.478 ± 3.1	-2.02 ± 2.1	2.3 ± 1.4	0.939	-10.2 ± 0.99
CC(=O)N[C@@H](Cc1c[nH]c2ccccc12)C(=O)OCc1cc(C(F)(F)F)cc(C(F)(F)F)c1	-1.8 ± 4.9	0.55 ± 2.9	-2.25	-0.193 ± 2.9	0.107 ± 2.2	3.21 ± 1.2	-4.64	-2.05 ± 1.6
COc1[nH]c2ccc(F)cc2c1C(=O)OCC1CCN(CCNS(C)(=O)=O)CC1.NS(=O)(=O)O	9.49 ± 18	-5.37 ± 1.8	-12.4	-4.24 ± 7.6	0.458 ± 2.6	1.22 ± 3.4	-14.6	-96.8 ± 37
OC[C@H]1NC[C@@H](O)[C@@H](O)[C@@H]1O [1-Deoxymannojirimycin hydrochloride]	-19.5 ± 0.34	-0.248 ± 2.8	1.67	-0.655 ± 2.4	0.936 ± 3.2	4.94 ± 3.5	3.38	-6.93 ± 1.9
COc1cccc(-c2cc(=O)c3ccccc3o2)c1N	-19.9 ± 17	-7.68 ± 0.091	–	–	-2.19 ± 0.54	–	–	-19.9 ± 2.4
N=C(N)NC(=O)c1nc(Cl)c(N)nc1N [Amiloride hydrochloride]	-3.25 ± 1.7	-1.04 ± 0.3	–	–	0.645 ± 2	–	–	-5.78 ± 2.1
CN[C@H]1CC[C@@H](c2ccc(Cl)c(Cl)c2)c2ccccc21 [Sertraline hydrochloride]	-29.8 ± 15	-27.2 ± 4.6	–	–	-49.1 ± 36	–	–	-34.3 ± 17
O=Nc1ccc(O)c2ncccc12	-62.1 ± 54	-51.7 ± 1.6	–	–	-76 ± 17	–	–	-36.6 ± 8.6
COc1cc(OC)c(NC(=O)Nc2cc(C)on2)cc1Cl	-7.55 ± 1.7	-30.1 ± 22	–	–	-6.85 ± 0.17	–	–	-16.1 ± 0.6
O=[N+]([O-])c1cccc2cn[nH]c12 [7-Nitroindazole]	-6.53 ± 5.5	9.63 ± 9.5	2.61	1.39 ± 3.3	1.68 ± 1.4	-3.08 ± 6	2.74	-5.09 ± 13
NC(=O)c1ccc(-c2nc(-c3ccccn3)c(-c3ccc4c(c3)OCO4)[nH]2)cc1	-28.1 ± 29	-7.33 ± 4.1	–	–	-6.35 ± 4.2	–	–	-188 ± 92
COc1cc2c(cc1C(F)(F)F)N(C(=O)Nc1cc(F)cc(-c3cccnc3)c1)CC2	-307 ± 220	-40.4 ± 9.6	–	–	-53.6 ± 14	–	–	-33.3 ± 13
Cn1cccc1/C=C1\C(=O)NC(=O)c2ccccc21	-1.01 ± 4.3	-5.13 ± 3	–	–	6.23 ± 0.48	–	–	-12.7 ± 2.9
O=c1cc(-c2ccccc2)oc2cc(O)c(O)c(O)c12 [Baicalein]	-3.45 ± 9.6	-6.98 ± 3.7	-16.2	-11.1 ± 7.1	5.37 ± 2.3	-10.3 ± 13	-44.1	-8.19 ± 8.6
CC[C@]1(O)C[C@H]2CN(CCc3c([nH]c4ccccc34)[C@@](C(=O)OC)(c3cc4c(cc3OC)N(C=O)[C@H]3[C@@](O)(C(=O)OC)[C@H](OC(C)=O)[C@]5(CC)C=CCN6CC[C@]43[C@@H]65)C2)C1 [Vincristine sulfate]	-54.7 ± 46	-46.8 ± 3.2	–	–	-80.6 ± 16	–	–	-43.7 ± 1.9
N#C/C(=C\c1ccc(O)c(O)c1)C(=O)OCCc1cccs1	-56.2 ± 56	-28 ± 22	–	–	-15.3 ± 11	–	–	-24.1 ± 14

Fetched by compound from the list above (2):
SMILES	robust z score of cell number ([1]; siRNA: siRpgrip1l)	robust z score of cell number ([1]; siRNA: siScr)	robust z cell number difference ([2]; siRNA: siRpgrip1l)	robust z cell number difference ([2]; siRNA: siScr)	robust z score of cilia incidence [3]	robust z cilia incidence difference [4]	robust z cilia incidence difference [5]	robust z score of cilia incidence [6]
N#C/C(=C\c1ccc(O)c(O)c1)C(=O)OCCc1cccs1	-56.2 ± 56	-28 ± 22	–	–	-15.3 ± 11	–	–	-24.1 ± 14
O=Nc1ccc(O)c2ncccc12	-62.1 ± 54	-51.7 ± 1.6	–	–	-76 ± 17	–	–	-36.6 ± 8.6
